Measurements from paper PMC2726291, “Sus1, Cdc31, and the Sac3 CID Region Form a Conserved Interaction Platform that Promotes Nuclear Pore Association and mRNA Export” (Molecular Cell, 2009).
These are yes or no findings as the source states them, for the method shown. In cells and extracts the contact can be indirect. Binding calls can cover weak binding; strength is not graded here. Tags and fused reporters may be left off the sequences shown.

By UniProt entry, the sequences of proteins in these tests, tags left out. Where a name states a change or a piece, a line headed by the entry shows the natural chain unless it says otherwise.
UniProt P46674: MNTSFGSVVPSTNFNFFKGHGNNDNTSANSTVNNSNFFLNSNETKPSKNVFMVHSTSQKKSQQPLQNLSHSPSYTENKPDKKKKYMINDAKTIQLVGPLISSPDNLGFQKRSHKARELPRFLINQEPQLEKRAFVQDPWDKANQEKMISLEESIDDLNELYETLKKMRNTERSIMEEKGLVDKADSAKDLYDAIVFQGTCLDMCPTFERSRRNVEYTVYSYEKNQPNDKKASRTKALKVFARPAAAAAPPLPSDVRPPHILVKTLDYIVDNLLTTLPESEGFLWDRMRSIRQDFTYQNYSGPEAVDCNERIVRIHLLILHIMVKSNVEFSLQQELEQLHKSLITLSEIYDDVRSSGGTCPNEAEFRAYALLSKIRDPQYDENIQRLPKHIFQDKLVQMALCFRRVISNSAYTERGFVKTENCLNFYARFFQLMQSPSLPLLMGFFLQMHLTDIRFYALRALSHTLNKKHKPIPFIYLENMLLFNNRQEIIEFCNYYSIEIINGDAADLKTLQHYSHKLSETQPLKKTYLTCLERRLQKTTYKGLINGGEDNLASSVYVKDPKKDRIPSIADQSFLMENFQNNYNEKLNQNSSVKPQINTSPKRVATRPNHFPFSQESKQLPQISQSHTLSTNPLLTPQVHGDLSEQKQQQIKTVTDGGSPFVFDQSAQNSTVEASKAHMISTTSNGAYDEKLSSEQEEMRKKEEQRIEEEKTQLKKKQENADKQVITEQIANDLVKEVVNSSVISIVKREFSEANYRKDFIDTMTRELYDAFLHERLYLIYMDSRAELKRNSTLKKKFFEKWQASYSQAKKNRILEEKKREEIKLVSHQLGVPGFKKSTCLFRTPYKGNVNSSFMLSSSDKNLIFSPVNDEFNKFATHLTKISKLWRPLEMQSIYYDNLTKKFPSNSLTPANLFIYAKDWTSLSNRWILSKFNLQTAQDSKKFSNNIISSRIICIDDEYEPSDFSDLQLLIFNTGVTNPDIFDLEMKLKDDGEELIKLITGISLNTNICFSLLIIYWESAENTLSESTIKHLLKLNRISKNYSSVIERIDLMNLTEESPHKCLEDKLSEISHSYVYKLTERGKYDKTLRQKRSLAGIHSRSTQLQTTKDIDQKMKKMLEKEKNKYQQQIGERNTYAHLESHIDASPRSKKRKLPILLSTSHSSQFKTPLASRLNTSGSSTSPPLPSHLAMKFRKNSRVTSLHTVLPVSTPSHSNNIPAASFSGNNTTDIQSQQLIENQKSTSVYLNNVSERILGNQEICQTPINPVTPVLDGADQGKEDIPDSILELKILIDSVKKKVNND

Biological target: Protein A-tagged Sac3ΔC (Δ795–813) (yeast) (UniProt P46674)
Test: co-IP; split-tag purification from sac3Δ THP1-GST SUS1-MYC yeast: Protein A-tagged Sac3 or mutants on IgG Sepharose, TEV cleavage, then GSH Sepharose (Thp1-GST), glutathione elution; Coomassie and western blot with anti-GST, anti-myc, anti-Cdc31

binding	Binder
no binding	Cdc31 (recombinant, untagged, full length) (natural protein, yeast, UniProt P06704 1-161, looked up, Cdc31, yeast, full length, cloned into pET30a and called untagged; the model holds residues 9–161; source: E. coli BL21(DE3) CodonPlus RIL, coexpressed with GST-Sac3 fragments, purified as a complex) MSKNRSSLQSGPLNSELLEEQKQEIYEAFSLFDMNNDGFLDYHELKVAMKALGFELPKREILDLIDEYDSEGRHLMKYDDFYIVMGEKILKRDPLDEIKRAFQLFDDDHTGKISIKNLRRVAKELGETLTDEELRAMIEEFDLDGDGEINENEFIAICTDS
binds	Sus1 (recombinant, untagged, full length) (natural protein, yeast, UniProt Q6WNK7 1-96, looked up, Sus1, yeast, full length; the model holds residues 6–95; also called Sus1A; Sus1B; source: E. coli BL21(DE3) CodonPlus RIL, untagged vector pOPT, purified as a complex with Sac3 fragment and Cdc31) MTMDTAQLKSQIQQYLVESGNYELISNELKARLLQEGWVDKVKDLTKSEMNINESTNFTQILSTVEPKALEMVSDSTRETVLKQIREFLEEIVDTQ
